Results as given in PMC5554785.
No constants are given. Whether binding was seen depends on the method and setting. In cells and extracts the contact can be indirect. Binding calls can cover weak binding; strength is not graded here. For some assays here: Sequences can lack the tags named with a protein. Blank lines part the entries; values can stand above or below the molecule they belong to.

Assays:
[1] = target: T1, germline nuclear Argonaute HRDE-1 (C. elegans) (UniProt Q09249); assay: co-IP; anti-HRDE-1 IP (IgG negative control) from lysate of the OLLAS-EMB-4 strain in DROSO buffer with 0.1% NP-40, with or without RNaseA for 30 min at room temperature before the antibody, overnight at 4°C; western blot with anti-Ollas
T1 sequence: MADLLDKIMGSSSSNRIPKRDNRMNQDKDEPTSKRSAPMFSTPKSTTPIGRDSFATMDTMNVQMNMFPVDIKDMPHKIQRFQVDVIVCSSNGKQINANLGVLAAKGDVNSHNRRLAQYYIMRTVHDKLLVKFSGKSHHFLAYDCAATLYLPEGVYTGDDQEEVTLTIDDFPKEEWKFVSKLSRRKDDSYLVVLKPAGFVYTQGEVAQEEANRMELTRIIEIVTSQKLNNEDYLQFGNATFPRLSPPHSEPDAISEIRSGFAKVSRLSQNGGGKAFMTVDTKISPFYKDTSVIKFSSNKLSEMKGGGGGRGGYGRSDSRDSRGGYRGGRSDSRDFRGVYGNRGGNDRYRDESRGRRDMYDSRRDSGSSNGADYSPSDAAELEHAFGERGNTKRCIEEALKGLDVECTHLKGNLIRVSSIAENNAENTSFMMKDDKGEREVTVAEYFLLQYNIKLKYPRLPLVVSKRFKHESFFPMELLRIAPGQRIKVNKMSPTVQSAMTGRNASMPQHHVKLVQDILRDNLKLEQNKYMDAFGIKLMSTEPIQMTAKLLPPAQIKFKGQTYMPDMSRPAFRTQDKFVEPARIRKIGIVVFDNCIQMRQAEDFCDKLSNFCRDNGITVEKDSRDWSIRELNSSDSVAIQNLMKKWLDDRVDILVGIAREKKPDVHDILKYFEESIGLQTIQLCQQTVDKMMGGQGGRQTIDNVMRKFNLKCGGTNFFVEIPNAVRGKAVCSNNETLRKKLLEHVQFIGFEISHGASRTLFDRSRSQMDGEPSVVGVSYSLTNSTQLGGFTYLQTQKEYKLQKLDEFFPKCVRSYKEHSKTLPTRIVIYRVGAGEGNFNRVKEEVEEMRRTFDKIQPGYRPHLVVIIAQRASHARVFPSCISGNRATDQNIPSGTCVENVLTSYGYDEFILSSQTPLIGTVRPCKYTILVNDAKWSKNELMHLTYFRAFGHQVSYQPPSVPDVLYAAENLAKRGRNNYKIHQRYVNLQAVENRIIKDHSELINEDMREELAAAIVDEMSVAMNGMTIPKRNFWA

[2] = target: RNA helicase Aquarius/EMB-4 (C. elegans); assay: co-IP; IP with EMB-4 antibody or anti-Flag (no antibody control) from gravid adult lysate of the FLAG-HRDE-1 strain in DROSO complete buffer, two hours at 4°C; western blot with anti-EMB-4 or anti-FLAG

binding [1]: binds
Molecule: OLLAS-EMB-4 (CRISPR-tagged endogenous EMB-4) (C. elegans)

binding [2]: binds
B1: FLAG-tagged version of HRDE-1 (protein, UniProt Q09249 1-1032)
chain: T1 sequence
